In patent publication US20040152868A1 (priority 2001, published 2004):
* marks the point of attachment. Acm = CC(=O)NC*

Assays:
[1] = general procedure: Fmoc solid-phase peptide synthesis; TentaGel S RAM; TentaGel S RAM-Lys(Boc)Fmoc (0.23-0.24 mmol/g); preformed Fmoc-protected HObt esters (3 eq.); conditions: whole synthesis
[2] = general procedure: Fmoc solid-phase peptide synthesis; TentaGel S RAM-Lys(Boc)Fmoc; preformed Fmoc-protected HObt esters (3 eq.); conditions: whole synthesis, scale 1 g resin
[3] = general procedure: Fmoc solid-phase peptide synthesis; TentaGel S RAM; preformed Fmoc-protected HObt esters (3 eq.); conditions: whole synthesis, scale 1 g resin

Row | Substance | final purity (method not given) [1] | crude mass [2] [mg] | crude mass [3] [mg]
1 | H-SPNFIWK-NH2 | better than 97% | 172 | 
2 | H-PNTC(Acm)EICAYAAC(Acm)TGCDKKKKKK-NH2 (cysteine pairing not given here) | better than 60% |  | 
3 | cyclo(GEIGAYAAGTGQ) |  |  | 40
